# Assay results taken from PubChem BioAssay AID662 (National Center for Advancing Translational Sciences (NCATS), 2007).
# This is one part of the list. Shown are side measurements of this screen, not its main read-out; they come without a call. Compounds called inactive in the main read-out are mostly missing here. Potencies come from curve fits of mixed quality, noted in brackets.
# Experiment: Cell signaling CRE-BLA (Fsk stim)
# Settings: CHO CRE-bla reporter (cAMP response element driving beta-lactamase), forskolin EC10, beta-lactamase ratio; measured here: 460 nm blue channel
# How it was run: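 CHO CRE-bla cells, overnight plating in Opti-MEM with 0.5% dialyzed FBS; cpd titration + EC10 NKH 477, 3 h 37 °C; CCF4 2 h RT; ex 405/em 460 vs 530 ratio → %Activity, AC50.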
row,SMILES,AC50
1,COCCn1c(N)c(C(=O)OCc2ccccc2)c2nc3ccccc3nc21,"12.6 µM [rising, partial curve]"
2,O=C(CSC1=NCCS1)N1CCCC1,"3.98 µM [falling, single point]"
3,CN(C)c1ccc(-c2nc(NCCN3CCOCC3)c3ccccc3n2)cc1,"7.94 µM [rising, partial curve]"
4,COc1ccccc1CNc1cc(-c2ccccc2OC)ncn1,"3.16 µM [falling, single point]"
5,CCCCCCCCOc1ccc(C(=O)O)cc1,"15.8 µM [rising, partial curve, poor fit]"
6,CCOC(=O)c1cc(C)sc1NC(=O)C1CCC1,"10 µM [rising, partial curve]"
7,CCSc1nnc2c(n1)OC1(CCCC1)Nc1ccccc1-2,"12.6 µM [rising, single point]"
8,CCCCCNC(=O)C(C#N)c1nc2ccccc2nc1N1CCCC1 (stereo not given),"12.6 µM [rising, single point]"
9,Cc1ccc(N2C(=O)CSC2c2cccs2)cc1 (stereo not given),"5.01 µM [falling, partial curve]"
10,CCOC(=O)c1cc2sc(C)cc2n1CC(=O)N1CCN(C(=O)c2ccco2)CC1,"0.126 µM [falling, full curve, poor fit]"
11,N#CCCn1c(=O)c(-c2ccc(F)cc2)nc2cnc(N3CCOCC3)nc21,"1.26 µM [rising, full curve]"
12,COc1cc2[nH]c(=S)nc(NCC3CCCO3)c2cc1OC (stereo not given),"12.6 µM [rising, single point]"
13,N#Cc1cccc(-c2nccc(NCc3ccccc3)n2)c1,"25.1 µM [rising, single point]"
14,Cc1ccc(N2C(=O)CSC2c2cccnc2)cc1F (stereo not given),"12.6 µM [falling, partial curve, poor fit]"
15,CCCCC#Cc1nc(NC)c2ncn([C@@H]3O[C@@H](CO)[C@H](O)[C@H]3O)c2n1,"15.8 µM [rising, partial curve]"
16,c1ccc(N2CCN(c3ncnc4c3oc3ccccc34)CC2)cc1,"2 µM [rising, partial curve]"
17,CCC(C)NC(=O)c1c(N)n(/N=C/c2cccnc2)c2nc3ccccc3nc12 (stereo not given),"3.16 µM [rising, partial curve]"
18,COc1ccc(-c2nsc(SCC(=O)Nc3cc(C)on3)n2)cc1,"0.00398 µM [falling, full curve, poor fit]"
19,COc1ccc2c(C(F)(F)F)cc(=O)oc2c1C,"25.1 µM [rising, single point]"
20,Cc1[nH]c2ccccc2c1CCC(N)=O,"0.2 µM [rising, partial curve, poor fit]"

# Sorted by SMILES length (low to high): 3 of the compounds above.
row,SMILES,AC50
19,COc1ccc2c(C(F)(F)F)cc(=O)oc2c1C,"25.1 µM [rising, single point]"
1,COCCn1c(N)c(C(=O)OCc2ccccc2)c2nc3ccccc3nc21,"12.6 µM [rising, partial curve]"
15,CCCCC#Cc1nc(NC)c2ncn([C@@H]3O[C@@H](CO)[C@H](O)[C@H]3O)c2n1,"15.8 µM [rising, partial curve]"
